{
  "source": "patent US20220000870A1",
  "about": "“TREATMENT OF CANCER” (MingSight Pharmaceuticals, Inc., priority 2016, published 2022)",
  "origin": "cited, not measured here",
  "test_system": "circulating lymphocytes",
  "details": "stated for comparison, no own data; cited from earlier work",
  "note": "At least one structure is not confirmed: it was looked up by name or label, or the drawing left a doubt.",
  "data": [
    {"smiles": "C=CC(=O)N1CCC[C@@H](n2nc(-c3ccc(Oc4ccccc4)cc3)c3c(N)ncnc32)C1", "note": "[Ibrutinib, ibrutinib]", "values": [
      {"measurement": "B cells in the peripheral circulation", "result": "increase"}
    ]}
  ]
}
